Assay results taken from patent publication EP2345639A1, “Cyclic hydroxylamine derivatives, their preparation and use as antioxidants” (ABIOGEN PHARMA S.p.A., priority 2009, dated 2011).

Test system: doxorubicin-induced cerebral oxidative stress in mice
Assay: In vivo assay of cerebral oxidative stress induced in mice by doxorubicin (model and oxidized animals)
Method: The assay was carried out on compounds (1)-(5) and (7)-(11) and on edaravone (E) as comparative compound.
10 mice were used for each treatment group. For each compound 50 mg/kg were administered intraperitoneally (IP) for three consecutive days (day 0, 1 and 2); half the animals (5) also received IP 16.7 mg/kg of doxorubicin immediately after the first treatment (day 0). On the day after the last administration (day 3) the animals were killed by neck dislocation and the brains were removed, weighed and frozen in liquid nitrogen.
For the analyses of oxidative stress, 100 mg/ml of brain homogenate was prepared in HEB^(*) buffer (pH 7.4 EDTA/HEPES^(**)) containing a mixture of enzyme inhibitors (Leupeptin, Pepstatin, Aprotinin, BHA).
The evaluation parameters were: • BrW/BWi: ratio between final brain weight and initial body weight (day 0); • Prot. Hmg: total proteins in the homogenate (BCA method, i.e. bicinchoninic acid); • Prot. Ox: oxidized proteins in the Hmg by means of a colorimetric method using dinitrophenylhydrazone (DNPH); • GSH: reduced glutathione in the supernatant (sn) of the Hmg, obtained after precipitation with metaphosphoric acid (MPA), by means of a colorimetric method using dithiodinitrobenzene (DTNB); • CAT: catalase in the Hmg by a colorimetric method using potassium dichromate; • SOD: superoxide dismutase by a colorimetric method using SOD Reagent (xanthine, EDTA, nitroblue tetrazole, Na2CO3, BSA, i.e. bovine serum albumin); • GST: glutathione S-transferase in the supernatant by a colorimetric method using chlorodinitrobenzene (CDNB) and GSH; and • GPx: glutathione peroxidase in the supernatant after addition of GSH and t-BuOOH, heating and precipitation with MPA; followed by GSH method with DTNB. The assay was performed on the compounds (1)-(5) and (7)-(11) and on edaravone (E), as comparative compound.
The mean effect (n=5 experiments) of doxorubicin (D), i.e. "oxidized" animal, relative to the vehicle (V), the vehicle representing the healthy animal.
All the parameters, with the exclusion of Brain/BWi and Prot. Hmg, were normalized for total Hmg proteins. The D value standard deviations and the % incidence relative to V are given in italics.
The effect of the tested compounds on the "oxidized" animals was given as % inhibition relative to the percentage change due to doxorubicin alone. The effect of the compounds on the oxidized animals can be expressed both as a function of the values of the vehicle (healthy, vehicle only) and as a function of the value of its own (healthy, compound only): • Vehicle: percentage [(Compound+D)/V]x100/[(V+D)/V]x100 • Its own: percentage [(Compound+D)/Compound]x100/[(V+D)/V]x100
Again in this case, the mean % effect relative to doxorubicin alone could be given for all the parameters simultaneously, as an approximate index of effectiveness on the cerebral oxidative state of the animal.

[1] = difference doxorubicin minus vehicle
[2] = doxorubicin alone, normalized for total Hmg proteins

`COc1cccc2c1C(=O)c1c(O)c3c(c(O)c1C2=O)C[C@@](O)(C(=O)CO)C[C@@H]3O[C@H]1C[C@H](N)[C@H](O)[C@H](C)O1` [doxorubicin, reference compound] was tested, and the “Diff.D-V Brain/BWi” value [1] was -1.3600 g/kg, the “Diff.D-V CAT” value [1] was -0.3027 U/mg and the “Diff.D-V GPX” value [1] was -0.5843 U/mg. For the same molecule, the “Diff.D-V GST” value [1] was -1.9000 µg/mg, the “Diff.D-V Prot. Hmg” value [1] was 0.7397 mg/mL and the “Diff.D-V Prot. Ox” value [1] was 0.4347 µmol H2O2/Mg. For the same molecule, the “Diff.D-V SOD” value [1] was -5.3400 mU/mg, the Brain/BWi (doxorubicin 16.7 mg/kg IP alone, mean of n=5 experiments) was 18.2867 g/kg and the CAT [2] was 1.9460 U/mg. The GPX [2] was 5.0010 U/mg, the GST [2] was 18.5067 µg/mg and the “Prot. Ox” value [2] was 2.7720 µmol H2O2/Mg. It also gave an SOD [2] of 31.2667 mU/mg.
